According to paper PMC4741485:
These are yes or no findings as the source states them, for the method shown. In cells and extracts the contact can be indirect. Some binding calls cover weakened binding; strength is not graded here. For some of these results: Sequences can lack the tags named with a protein.

Sequences of proteins named here, by UniProt entry; tags and fusion partners are left off.
UniProt Q00987: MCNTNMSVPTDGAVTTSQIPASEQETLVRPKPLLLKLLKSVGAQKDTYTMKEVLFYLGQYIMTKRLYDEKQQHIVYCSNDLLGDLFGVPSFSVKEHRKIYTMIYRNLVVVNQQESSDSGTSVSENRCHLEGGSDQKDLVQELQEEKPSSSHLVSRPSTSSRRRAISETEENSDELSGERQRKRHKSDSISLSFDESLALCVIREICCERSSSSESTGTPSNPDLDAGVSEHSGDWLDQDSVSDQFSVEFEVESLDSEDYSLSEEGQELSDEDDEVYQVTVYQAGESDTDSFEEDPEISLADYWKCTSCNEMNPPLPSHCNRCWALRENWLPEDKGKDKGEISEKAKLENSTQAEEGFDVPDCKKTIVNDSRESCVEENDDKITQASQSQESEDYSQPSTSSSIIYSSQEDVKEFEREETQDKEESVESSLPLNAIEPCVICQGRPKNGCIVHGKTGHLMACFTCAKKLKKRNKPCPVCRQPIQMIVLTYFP

B1: STIP (sip1/tuftelin interacting protein), endogenous (protein, UniProt Q9UBB9 1-837)
chain: MSLSHLYRDGEGRIDDDDDERENFEITDWDLQNEFNPNRQRHWQTKEEATYGVWAERDSDDERPSFGGKRARDYSAPVNFISAGLKKGAAEEAELEDSDDEEKPVKQDDFPKDFGPRKLKTGGNFKPSQKGFAGGTKSFMDFGSWERHTKGIGQKLLQKMGYVPGRGLGKNAQGIINPIEAKQRKGKGAVGAYGSERTTQSMQDFPVVDSEEEAEEEFQKELSQWRKDPSGSKKKPKYSYKTVEELKAKGRISKKLTAPQKELSQVKVIDMTGREQKVYYSYSQISHKHNVPDDGLPLQSQQLPQSGKEAKAPGFALPELEHNLQLLIDLTEQEIIQNDRQLQYERDMVVNLFHELEKMTEVLDHEERVISNLSKVLEMVEECERRMQPDCSNPLTLDECARIFETLQDKYYEEYRMSDRVDLAVAIVYPLMKEYFKEWDPLKDCTYGTEIISKWKSLLENDQLLSHGGQDLSADAFHRLIWEVWMPFVRNIVTQWQPRNCDPMVDFLDSWVHIIPVWILDNILDQLIFPKLQKEVENWNPLTDTVPIHSWIHPWLPLMQARLEPLYSPIRSKLSSALQKWHPSDSSAKLILQPWKDVFTPGSWEAFMVKNIVPKLGMCLGELVINPHQQHMDAFYWVIDWEGMISVSSLVGLLEKHFFPKWLQVLCSWLSNSPNYEEITKWYLGWKSMFSDQVLAHPSVKDKFNEALDIMNRAVSSNVGAYMQPGARENIAYLTHTERRKDFQYEAMQERREAENMAQRGIGVAASSVPMNFKDLIETKAEEHNIVFMPVIGKRHEGKQLYTFGRIVIYIDRGVVFVQGEKTWVPTSLQSLIDMAK
B2: GST-STIP (protein, UniProt Q9UBB9 1-837)
chain: B1 chain

Experiments:
[1] = target: p53, endogenous (human (endogenous in U2OS)) (UniProt P04637); assay: co-IP; endogenous proteins in U2OS lysate; precipitated with anti-USP7, anti-Mdm2, anti-p53 or control IgG (overnight 4 °C, protein G magnetic beads); WB; in Figure 5C with control or STIP shRNA and 20 uM MG132 for 4 h
[2] = target: USP7 (ubiquitin-specific protease 7), endogenous (human (endogenous in U2OS and H1299)) (UniProt Q93009); assay: as above
[3] = target: Mdm2, endogenous (human (endogenous in U2OS)) (UniProt Q00987); assay: as above
GFP-USP7 full-length = GFP-USP7 full-length (UniProt Q93009); assay: co-IP; lysates of U2OS cells transfected with GFP-USP7 constructs were incubated with GST or GST-STIP, then immunoprecipitated with anti-GFP antibody; blotted with anti-STIP, re-probed with anti-GFP; only the binder purified

| Binder | binding [1] | binding [2] | binding [3] | binding (GFP-USP7 full-length) |
| --- | --- | --- | --- | --- |
| B1 | binds | binds | binds | – |
| B2 | – | – | – | binds |
